Measurements from patent US20220026415A1, “A METHOD FOR SCREENING A THERAPEUTIC AGENT FOR CANCER USING BINDING INHIBITOR OF CYCLIN-DEPENDENT KINASE 1 (CDK1)-CYCLIN B1 AND RETINOIC ACID RECEPTOR RESPONDER 1 (RARRES1) GENE KNOCKOUT ANIMAL MODEL” (NATIONAL CANCER CENTER, priority 2018, published 2022).
These are yes or no findings as the source states them, for the method shown. For part of these data: In cells and extracts the contact can be indirect. Some entries that bind do so weakly or less than the wild type.

Chains of the proteins cited; added tags and fusions are not shown. Lines headed by an entry give the natural chain unless they say otherwise; changes in a name come on top.
UniProt P06493: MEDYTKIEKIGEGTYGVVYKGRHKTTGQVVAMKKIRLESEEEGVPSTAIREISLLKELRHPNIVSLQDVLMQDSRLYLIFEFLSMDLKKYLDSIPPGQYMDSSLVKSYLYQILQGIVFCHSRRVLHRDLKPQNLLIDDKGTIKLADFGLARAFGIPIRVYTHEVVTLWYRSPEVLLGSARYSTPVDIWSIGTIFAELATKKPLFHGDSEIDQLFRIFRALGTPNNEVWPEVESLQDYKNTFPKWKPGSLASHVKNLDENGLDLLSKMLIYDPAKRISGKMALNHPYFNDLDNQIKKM
UniProt P14635: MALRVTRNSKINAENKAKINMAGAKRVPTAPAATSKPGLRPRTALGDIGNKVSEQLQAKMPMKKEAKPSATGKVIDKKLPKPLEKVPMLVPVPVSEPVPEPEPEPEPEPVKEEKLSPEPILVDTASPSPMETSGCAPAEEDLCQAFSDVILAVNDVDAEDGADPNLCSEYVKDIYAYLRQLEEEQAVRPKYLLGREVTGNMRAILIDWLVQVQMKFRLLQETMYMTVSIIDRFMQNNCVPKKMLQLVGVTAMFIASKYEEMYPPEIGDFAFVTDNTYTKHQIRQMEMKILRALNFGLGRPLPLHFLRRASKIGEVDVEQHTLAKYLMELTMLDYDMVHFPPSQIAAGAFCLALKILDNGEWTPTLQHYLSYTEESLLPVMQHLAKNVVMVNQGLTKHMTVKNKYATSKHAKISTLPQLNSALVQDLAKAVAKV
UniProt P49788: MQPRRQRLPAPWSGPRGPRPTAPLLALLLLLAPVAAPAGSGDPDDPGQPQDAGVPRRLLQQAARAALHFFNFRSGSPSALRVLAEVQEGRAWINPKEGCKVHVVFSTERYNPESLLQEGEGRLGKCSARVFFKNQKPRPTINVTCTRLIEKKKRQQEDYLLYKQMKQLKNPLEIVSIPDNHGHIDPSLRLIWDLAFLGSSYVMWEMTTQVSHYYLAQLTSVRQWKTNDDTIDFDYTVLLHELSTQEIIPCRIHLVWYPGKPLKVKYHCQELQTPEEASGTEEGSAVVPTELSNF

Experiments:
GST-CDK1 [1] = target: GST-CDK1 (UniProt P06493); test: GST pull-down from HEK293 cells co-transfected with RARRES1 and GST-CDK1
[2] = target: endogenous Cyclin B1 of HEK293 cells (Homo sapiens (Human)) (UniProt P14635); test: immunoprecipitation with RARRES1-specific antibody from mitotic (+nocodazole) or exponentially growing 293 cells, immunoblot
[3] = target: endogenous CDK1 of HEK293 cells (UniProt P06493); test: as above
[4] = target: glutathione S-transferase (GST)-tagged Cyclin B1 (Homo sapiens (Human)) (UniProt P14635); test: GST-bead precipitation from HEK293 cells co-transfected with RARRES1 and Cyclin B1
GST-CDK1 [5] = target: GST-CDK1 (UniProt P06493); test: GST pull-down from HEK293 cells co-transfected with RARRES1 and GST-CDK1, immunoblot
[6] = target: glutathione S-transferase (GST)-tagged Cyclin B1 (Homo sapiens (Human)) (UniProt P14635); test: GST pull-down from HEK293 cells co-transfected with RARRES1 and GST-Cyclin B1, immunoblot

- binding (GST-CDK1 [1]): binds
- binding [2]: binds
- binding [3]: binds
- binding [4]: binds
- binding (GST-CDK1 [5]): binds
- binding [6]: binds
Substance: retinoic acid receptor responder 1 (RARRES1), isoform 1, wild type, overexpressed in HEK293 cells (from UniProt P49788 1-294)
